No constants are given. Whether binding was seen depends on the method and setting. Some entries that bind do so weakly or less than the wild type.
B1: SEQ ID NO. 97 (designed binder)
ligand: MVDAKFDKELEEARAEIERLPNLTEHQRRNFIHALRHDPSDSAALLAIAKAWNDRQAPKAAAHHHHHHC
B2: SEQ ID NO. 98 (designed binder)
ligand: MVDAKFDKELEEARAEIERLPNLTEHQRRNFIHALRQDPSDSAALLAIAKAWNDRQAPKAAAHHHHHHC
B3: SEQ ID NO. 99 (designed binder)
ligand: MVDAKFDKELEEARAEIERLPNLTEQQRRNFIFALRHDPSDSAALLAIAKAWNDRQAPKAAAHHHHHHC
B4: SEQ ID NO. 100 (designed binder)
ligand: MVDAKFDKELEEARAEIERLPNLTEQQRRHFIHALRHDPSDSAPLLAIAKAWNDKQAPKAAAHHHHHHC
B5: SEQ ID NO. 101 (designed binder)
ligand: MVDAKFDKELEEARAEIERLPNLTEHQRRNFIHALRHDPSDSASLLAIAKNWNDKRAPKAAAHHHHHHC
B6: SEQ ID NO. 102 (designed binder)
ligand: MVDAKFDKELEEARAEIERLPNLTEHQRRNFIHALRHDPSDSASLLAIAKNWNDKQAPKAAAHHHHHRC
B7: SEQ ID NO. 103 (designed binder)
ligand: MVDAKFDKELEEARAEIERLPNLTEHQRRNFIQALRKDPSDSASLLAIAKNWNDKQAPKAAAHHHHHHC
B8: SEQ ID NO. 104 (designed binder)
ligand: MVDAKFDKELEEARAEIERLPNLTEHQRRNFIHALRRDPSDSASLLAIAKNWNDKQAPKAAAHHHHHHC
B9: SEQ ID NO. 105 (designed binder)
ligand: MVDAKFDKELEEARAEIERLPNLTEQQRRNFIHALRHDPSDSASLLAIAKNWNDKQAPKAAAHHHHHHC
B10: SEQ ID NO. 106 (designed binder)
ligand: MVDAKFDKELEEARAEIERLPNLTEQQRRNFIHALRKDPSDSASLLAIAKNWNDKQAPKAAAHHHHHHC
B11: SEQ ID NO. 107 (designed binder)
ligand: MVDAKFDKELEEARAEIERLPNLTEQQRRNFIQALRKDPSDSASLLAIAKNWNDKQAPKAAAHHHHHHC
B12: SEQ ID NO. 108 (designed binder)
ligand: MVDAKFDKELEEARAEIERLPNLTEHQRRNFIHALRQDPSDSASLLAIAKNWNDKQAPKAAAHHHHHHC
B13: SEQ ID NO. 109 (designed binder)
ligand: MVDAKFDKELEEARAEIKRLPNLTEHQRRNFIQALRKDPSDSASLLAIAKNWNDKQAPKAAAHHHHHHC
B14: SEQ ID NO. 110 (designed binder)
ligand: MVDAKFDKELEEARAEIERLPNLTEEQRRNFIQALRDDPSSSAGLLALAKHWNDKQAPKAAAHHHHHHC
B15: SEQ ID NO. 111 (designed binder)
ligand: MVDAKFDKELEEARAEIERLPNLTEHQRRNFIQALRKDPSDSASLLAIAKNWDDKQAPKAAAHHHHHHC
B16: SEQ ID NO. 112 (designed binder)
ligand: MVDAKFDKELEEARAEIERPPNLTEEQRRNFIQALRDDPSSSAGLLALAKHWNDKQAPKAAAHHHHHHC
B17: SEQ ID NO. 113 (designed binder)
ligand: MVDAKFDKELEEARAEIEHLPNLTEHQRRNFIHALRKDPSDSASLLAIAKNWNDKQAPKAAAHHHHHHC
B18: SEQ ID NO. 114 (designed binder)
ligand: MVDAKFDKELEEARAEIERLPNLTGHQRRNFIHALRHDPSDSAPLLAIAKAWNDHQAPKAAAHHHHHHC
B19: SEQ ID NO. 115 (designed binder)
ligand: MVDAKFDKELEEARAEIERLPNLTVEQRRNFIQALRKDPSDSASLLAIAKNWNDKQAPKAAAHHHHHHC
B20: SEQ ID NO. 116 (designed binder)
ligand: MVDAKFDKELEEARAEIERLPNLTEEQRRNFIQALRKDPSDAASLLAIAKNWNDKQAPKAAAHHHHHHC
B21: SEQ ID NO. 123 (designed binder)
ligand: MVDAKFDKELEEARAEIERLPNLTEHQRRYFIFALRDDPSKSALLLAAAKRHNDEQAPKVDAKFDKELEEARAEIERLPNLTEHQRRYFIFALRDDPSKSALLLAAAKRHNDEQAPKVDAKFDKELEEARAEIERLPNLTEHQRRYFIFALRDDPSKSALLLAAAKRHNDEQAPKAAAHHHHHHC
B22: SEQ ID NO. 44 (designed binder)
ligand: MVDAKFDKELEEARAEIERLPNLTEEQRRNLIQALRKDPSDSASLLAIAKNWNDKQAPKAAAHHHHHHC
B23: SEQ ID NO. 45 (designed binder)
ligand: MVDAKFDKELEEARAEIERLPNLTEEQRRNFIQALRDDPSSSAGLLALAKHWNDKQAPKAAAHHHHHHC
B24: SEQ ID NO. 46 (designed binder)
ligand: MVDAKFDKELEEARAEIERLPNLTEEQRHSFIQALRKDPSDSASLLAVAKNWNDKQAPKAAAHHHHHHC
B25: SEQ ID NO. 47 (designed binder)
ligand: MVDAKFDKELEEARAEIERLPNLTEEQRRNFIQAQRKDPSDSASLLGIAKNWNDKQAPKAAAHHHHHHC
B26: SEQ ID NO. 48 (designed binder)
ligand: MVDAKFDKELEEARAEIERLPNLTEEQRRNLILALRDDPSSSAGLLALAKHWNDKQAPKAAAHHHHHHC
B27: SEQ ID NO. 49 (designed binder)
ligand: MVDAKFDKELEEARAEIERLPNLTELQRREFIKFLRGDPSDSASLLAIAKNWNDKQAPKAAAHHHHHHC
B28: SEQ ID NO. 50 (designed binder)
ligand: MVDAKFDKELDEARAEIERLPNLTEEQRRNFFQALRDDPSSSAGLLALAKHWNDKQAPKAAAHHHHHHC
B29: SEQ ID NO. 51 (designed binder)
ligand: MVDAKFDKELEEARAEIERLPDLTEEQRRNFIQALRKDPSDSASLLAIVKNWNDKQAPKAAAHHHHHHC
B30: SEQ ID NO. 52 (designed binder)
ligand: MVDAKFDKELEEARAEIERLPNLTEEHRRNFIQALRDDPSSSAGLLALAKHWNDKQAPKAAAHHHHHHC
B31: SEQ ID NO. 53 (designed binder)
ligand: MVDAKFDKELEEARAEIERLPNLTEELRRNFIQALRKDPSDSASLLAIAKNWNDKQAPKAAAHHHHHHC
B32: SEQ ID NO. 54 (designed binder)
ligand: MVDAKFDKELEEARAEIERLPNLTEEQRREFIKFLRGDPSDSASLLAIAKNWNDKQAPKAAAHHHHHHC

Sequences of proteins named here, by UniProt entry; tags and fusion partners are left off. A change or cut given only in a name is not applied to a line headed by its entry.
UniProt P00738: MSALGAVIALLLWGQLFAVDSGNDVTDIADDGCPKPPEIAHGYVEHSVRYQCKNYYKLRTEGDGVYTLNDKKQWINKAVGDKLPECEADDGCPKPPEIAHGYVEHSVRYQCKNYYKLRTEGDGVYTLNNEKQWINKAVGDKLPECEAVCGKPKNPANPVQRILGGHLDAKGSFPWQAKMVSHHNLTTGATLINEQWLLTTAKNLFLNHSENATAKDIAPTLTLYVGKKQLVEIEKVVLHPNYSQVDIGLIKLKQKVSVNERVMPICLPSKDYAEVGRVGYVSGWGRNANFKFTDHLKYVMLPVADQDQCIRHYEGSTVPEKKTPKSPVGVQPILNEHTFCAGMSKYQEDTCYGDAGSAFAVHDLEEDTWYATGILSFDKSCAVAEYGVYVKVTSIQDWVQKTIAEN

Each binder was assayed against Haptoglobin protein (UniProt P00738) (assay: equilibrium batch binding to ligand-conjugated resin, 1.5 mg/mL haptoglobin, 60 min, A280 of unbound).

binding, binds:
B1, B2, B3, B4, B5, B6, B7, B8, B9, B10, B11, B12, B13, B14, B15, B16, B17, B18, B19, B20, B21, B22, B23, B24, B25, B26, B27, B28, B29, B30, B31, B32
